Experimental data: paper PMC6446853
These are yes or no findings as the source states them, for the method shown. Binding seen in cells or lysates may run through a third protein. Here binding means that the protein was enriched with, or labelled near, the bait; the list need not be complete.

Protein sequences, listed by entry. Tags and fused reporters are not part of them.
UniProt P14635: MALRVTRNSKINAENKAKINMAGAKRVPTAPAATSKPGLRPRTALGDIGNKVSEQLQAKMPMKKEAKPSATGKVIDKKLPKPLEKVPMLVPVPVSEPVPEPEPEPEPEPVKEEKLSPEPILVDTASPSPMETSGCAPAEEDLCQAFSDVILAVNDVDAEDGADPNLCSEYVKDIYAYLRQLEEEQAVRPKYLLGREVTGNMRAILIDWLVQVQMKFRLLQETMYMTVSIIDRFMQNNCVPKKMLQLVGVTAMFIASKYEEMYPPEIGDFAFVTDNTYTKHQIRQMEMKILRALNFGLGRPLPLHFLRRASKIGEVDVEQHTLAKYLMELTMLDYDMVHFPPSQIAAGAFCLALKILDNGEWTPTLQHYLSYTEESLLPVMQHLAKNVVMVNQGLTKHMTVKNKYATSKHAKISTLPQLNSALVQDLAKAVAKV

How the values were obtained:
[1] = biological target: CCNB1-mCherry (cyclin B1 tagged at the endogenous locus) (human (endogenous in HeLa)) (UniProt P14635); experiment: affinity purification with mass spectrometry; CCNB1-mCherry or CCNB1-GFP precipitated with sheep anti-mCherry or anti-GFP antibodies and protein G-sepharose (2 h, 4°C) from lysates of HeLa cells arrested with 0.3 µM nocodazole for 16 h; parental HeLa as control; 20 mM Tris-HCl pH 7.4, 150 mM NaCl, 1% Igepal CA-630, 0.1% sodium deoxycholate; eluted with glycine pH 2.6
[2] = biological target: CCNB1-GFP (cyclin B1 tagged at the endogenous locus) (human (endogenous in HeLa)) (UniProt P14635); experiment: as above

binding [1] | binding [2] | Binder
binds |  | CDK-inhibitor p57^KIP2 (CDKN1C) (protein, UniProt P49918 1-316) MSDASLRSTSTMERLVARGTFPVLVRTSACRSLFGPVDHEELSRELQARLAELNAEDQNRWDYDFQQDMPLRGPGRLQWTEVDSDSVPAFYRETVQVGRCRLLLAPRPVAVAVAVSPPLEPAAESLDGLEEAPEQLPSVPVPAPASTPPPVPVLAPAPAPAPAPVAAPVAAPVAVAVLAPAPAPAPAPAPAPAPVAAPAPAPAPAPAPAPAPAPAPDAAPQESAEQGANQGQRGQEPLADQLHSGISGRPAAGTAAASANGAAIKKLSGPLISDFFAKRKRSAPEKSSGDVPAPCPSPSAAPGVGSVEQTPRKRLR
binds | binds | MAD1 (endogenous) (protein, UniProt Q9Y6D9 1-718) MEDLGENTMVLSTLRSLNNFISQRVEGGSGLDISTSAPGSLQMQYQQSMQLEERAEQIRSKSHLIQVEREKMQMELSHKRARVELERAASTSARNYEREVDRNQELLTRIRQLQEREAGAEEKMQEQLERNRQCQQNLDAASKRLREKEDSLAQAGETINALKGRISELQWSVMDQEMRVKRLESEKQELQEQLDLQHKKCQEANQKIQELQASQEARADHEQQIKDLEQKLSLQEQDAAIVKNMKSELVRLPRLERELKQLREESAHLREMRETNGLLQEELEGLQRKLGRQEKMQETLVGLELENERLLAKLQSWERLDQTMGLSIRTPEDLSRFVVELQQRELALKDKNSAVTSSARGLEKARQQLQEELRQVSGQLLEERKKRETHEALARRLQKRVLLLTKERDGMRAILGSYDSELTPAEYSPQLTRRMREAEDMVQKVHSHSAEMEAQLSQALEELGGQKQRADMLEMELKMLKSQSSSAEQSFLFSREEADTLRLKVEELEGERSRLEEEKRMLEAQLERRALQGDYDQSRTKVLHMSLNPTSVARQRLREDHSQLQAECERLRGLLRAMERGGTVPADLEAAAASLPSSKEVAELKKQVESAELKNQRLKEVFQTKIQEFRKACYTLTGYQIDITTENQYRLTSLYAEHPGDCLIFKATSPSGSKMQLLETEFSHTVGELIEVHLRRQDSIPAFLSSLTLELFSRQTVA
